Out of some 310,000 compounds screened, about 17,000 (5.5%) were called active. Calls come from the whole dose curve; as a rule, active = well fitted inhibition curve with a large enough effect; inconclusive = small, poorly fitted or top-dose-only effect, or effect the other way; inactive = no such curve, though single readings can be large or run the other way. Inconclusive results, whose numbers are uncertain, are shown. Where the call is inconclusive, the potency comes from a doubtful curve fit.
biological target: Nuclear receptor ROR-gamma (Mus musculus) (UniProt P51450); experiment: qHTS for inhibitors of ROR gamma transcriptional activity; details: Drosophila S2 Gal4-RORgamma UAS-luciferase reporter, 20 h; series mostly up to 53.6 µM; note: nearly all actives have a fitted effect of over 60% in size
Text: NIH Molecular Libraries Probe Production Network [MLPCN] NIH Chemical Genomics Center [NCGC] MLPCN Grant: R03 DA026211-01 Assay Provider: Dan Littman, New York University Assay Overview: The retinoic acid-related orphan receptor (ROR) gamma is a transcription factor that has a central role in the differentiation of Th17 cells, a subset of T helper cells that secrete the inflammatory cytokines IL-17, IL-17F, and IL-22. Th17 cells have been implicated in graft versus host disease, autoimmune disease and asthma. ROR gamma is induced in naive T helper cells in the presence of TGF-beta combined with IL-6, IL-21, or IL-23, and thereafter directs the expression of the Th17 lineage cytokines. To study the mechanism of action of ROR gamma, an insect cell-based assay was screened. This Drosophila Schneider cell line was stably transfected with two vectors: a gene expressing a fusion of the Gal4 DNA binding domain and ROR gamma transactivation domain under the control of the metallothionine promoter and a Photinus luciferase reporter regulated by the Gal4 binding site enhancer, UAS. […] Small molecule inhibitors of ROR gamma activity are detected by a decrease in luciferase reporter activity.
Assay Protocol Summary: For screening, 600 cells in 4 uL/well were dispensed into white solid 1536-well plates (Grenier) using a solenoid-based dispenser. Following transfer of 23 nL compound or DMSO vehicle by a pin tool, the plates were incubated 1 hr at ambient temperature, and 1 uL/well copper sulfate (700 uM final concentration) was added. The plates were centrifuged 15 s at 1000 RPM and incubated 20 hr at ambient temperature. After addition of 1.5 uL Photinus luciferase detection reagent, the plates were incubated 10 min at ambient temperature and then read by an ViewLux (Perkin Elmer) to detect luminescence. Keywords: NIH Roadmap, MLPCN, MLI, MLSMR, qHTS, NCGC, qHTS, nuclear hormone receptor, retinoic acid-related orphan receptor, ROR gamma
Potency is the fitted concentration of half-maximal effect.

Chains of the proteins cited; added tags and fusions are not shown. Lines headed by an entry give the natural chain unless they say otherwise; changes in a name come on top.
UniProt P51450: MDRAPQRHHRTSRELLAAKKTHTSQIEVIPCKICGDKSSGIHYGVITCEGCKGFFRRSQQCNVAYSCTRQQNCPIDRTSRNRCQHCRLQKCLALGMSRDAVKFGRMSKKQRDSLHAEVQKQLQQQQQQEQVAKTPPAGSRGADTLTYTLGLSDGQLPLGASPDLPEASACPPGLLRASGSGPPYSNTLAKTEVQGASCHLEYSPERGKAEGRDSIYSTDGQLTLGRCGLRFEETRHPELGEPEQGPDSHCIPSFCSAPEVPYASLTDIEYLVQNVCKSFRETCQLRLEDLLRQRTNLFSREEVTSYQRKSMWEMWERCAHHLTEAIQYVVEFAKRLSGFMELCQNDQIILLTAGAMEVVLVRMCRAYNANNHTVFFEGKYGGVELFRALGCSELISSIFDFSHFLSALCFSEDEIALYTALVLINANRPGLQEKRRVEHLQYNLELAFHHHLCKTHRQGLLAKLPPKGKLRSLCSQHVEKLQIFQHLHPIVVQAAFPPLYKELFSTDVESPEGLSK

| SMILES | Potency |
| --- | --- |
| COC(=O)c1sc(-c2ccc(C(C)(C)C)cc2)cc1NC(=O)COCC(=O)O | inconclusive: 35.5 µM [activator, single point] |
| Cc1cc(N2C(=O)C(O)=C(C(=O)c3cc4ccccc4o3)C2c2cccc(Br)c2)no1 (centres undefined) | inconclusive: 35.5 µM [inhibitor, single point] |
| Cc1cc(N2C(=O)C(O)=C(C(=O)c3cc4ccccc4o3)C2c2ccc(Cl)cc2)no1 (centres undefined) | inconclusive: 35.5 µM [inhibitor, single point] |
| O=C(COc1ccc(Cl)cc1)Nc1cc(NC(=O)COc2ccc(Cl)cc2)cc(C(=O)O)c1 | inconclusive: 11.2 µM [activator, single point] |

From PubChem BioAssay AID2551 (National Center for Advancing Translational Sciences (NCATS), 2010)
